This is an account of results in patent US20230346790A1, “PHARMACEUTICAL COMPOSITION FOR PREVENTION OR TREATMENT OF CANCERS ASSOCIATED WITH KRAS MUTATION” (WELLMARKER BIO CO., LTD., priority 2020, published 2023).

Sequences of proteins named here, by UniProt entry; tags and fusion partners are left off. A change or cut given only in a name is not applied to a line headed by its entry. Residues count along the entry.
UniProt P35222, residues 2-781: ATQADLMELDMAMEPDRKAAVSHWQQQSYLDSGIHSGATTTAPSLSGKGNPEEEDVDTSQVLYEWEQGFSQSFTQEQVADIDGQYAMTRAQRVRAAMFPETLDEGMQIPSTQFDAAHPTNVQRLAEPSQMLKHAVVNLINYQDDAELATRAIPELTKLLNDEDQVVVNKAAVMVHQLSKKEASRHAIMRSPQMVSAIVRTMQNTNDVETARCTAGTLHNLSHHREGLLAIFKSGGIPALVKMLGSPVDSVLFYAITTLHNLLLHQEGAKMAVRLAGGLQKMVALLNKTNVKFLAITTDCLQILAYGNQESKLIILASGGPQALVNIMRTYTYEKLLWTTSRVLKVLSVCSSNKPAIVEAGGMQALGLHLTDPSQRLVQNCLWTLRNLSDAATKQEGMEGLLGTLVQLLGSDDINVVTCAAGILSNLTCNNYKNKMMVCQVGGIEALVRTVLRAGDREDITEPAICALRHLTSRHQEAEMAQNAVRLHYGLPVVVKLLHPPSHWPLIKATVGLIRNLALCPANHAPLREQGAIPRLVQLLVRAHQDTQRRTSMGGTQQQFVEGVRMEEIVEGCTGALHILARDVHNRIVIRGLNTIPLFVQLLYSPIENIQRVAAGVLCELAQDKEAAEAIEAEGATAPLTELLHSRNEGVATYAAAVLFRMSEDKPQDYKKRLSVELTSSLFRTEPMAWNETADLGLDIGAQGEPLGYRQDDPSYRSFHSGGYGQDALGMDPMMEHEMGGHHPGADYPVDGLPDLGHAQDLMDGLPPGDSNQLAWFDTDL
UniProt Q04912: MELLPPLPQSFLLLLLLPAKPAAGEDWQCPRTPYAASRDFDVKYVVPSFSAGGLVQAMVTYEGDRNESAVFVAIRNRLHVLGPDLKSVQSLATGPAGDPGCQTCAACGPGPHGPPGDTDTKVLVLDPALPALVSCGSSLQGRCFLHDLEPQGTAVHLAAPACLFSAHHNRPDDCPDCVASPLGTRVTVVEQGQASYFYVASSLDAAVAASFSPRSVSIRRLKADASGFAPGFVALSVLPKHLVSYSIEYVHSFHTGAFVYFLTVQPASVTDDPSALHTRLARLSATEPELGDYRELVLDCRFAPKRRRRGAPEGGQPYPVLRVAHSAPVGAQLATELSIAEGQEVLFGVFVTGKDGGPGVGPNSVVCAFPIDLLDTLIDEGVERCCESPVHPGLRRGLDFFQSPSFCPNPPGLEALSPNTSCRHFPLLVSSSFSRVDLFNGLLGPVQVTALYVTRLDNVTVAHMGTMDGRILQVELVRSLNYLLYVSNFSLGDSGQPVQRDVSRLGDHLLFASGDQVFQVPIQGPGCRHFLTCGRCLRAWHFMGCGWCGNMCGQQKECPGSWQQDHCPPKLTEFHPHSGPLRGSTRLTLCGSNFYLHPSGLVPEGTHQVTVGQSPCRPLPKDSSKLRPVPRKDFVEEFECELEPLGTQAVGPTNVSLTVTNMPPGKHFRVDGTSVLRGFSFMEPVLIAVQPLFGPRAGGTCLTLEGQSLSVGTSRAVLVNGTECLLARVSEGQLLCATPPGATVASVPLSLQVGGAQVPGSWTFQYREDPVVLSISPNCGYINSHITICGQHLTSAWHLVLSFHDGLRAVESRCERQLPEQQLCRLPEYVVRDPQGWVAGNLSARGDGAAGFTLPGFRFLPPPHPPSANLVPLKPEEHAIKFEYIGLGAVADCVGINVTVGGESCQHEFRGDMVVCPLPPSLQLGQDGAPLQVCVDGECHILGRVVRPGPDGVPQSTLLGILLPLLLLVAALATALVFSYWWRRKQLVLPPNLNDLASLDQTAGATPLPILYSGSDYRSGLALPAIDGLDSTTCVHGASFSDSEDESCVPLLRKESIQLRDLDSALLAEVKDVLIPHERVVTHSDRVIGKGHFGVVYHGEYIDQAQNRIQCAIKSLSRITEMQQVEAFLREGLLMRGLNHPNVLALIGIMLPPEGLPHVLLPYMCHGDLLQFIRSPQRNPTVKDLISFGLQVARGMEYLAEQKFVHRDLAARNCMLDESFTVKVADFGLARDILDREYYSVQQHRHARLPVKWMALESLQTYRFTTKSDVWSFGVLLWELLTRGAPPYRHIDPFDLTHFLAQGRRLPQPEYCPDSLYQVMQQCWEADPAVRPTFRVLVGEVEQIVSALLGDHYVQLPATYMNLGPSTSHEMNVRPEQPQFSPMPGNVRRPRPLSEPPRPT

This test addresses β-catenin (UniProt P35222). Put plainly: western blotting of lysate of the cetuximab-resistant LIM1215 cell line R2 (right of FIG. 5); pull-down format not described.

These are yes or no findings as the source states them, for the method shown. In cells and extracts the contact can be indirect. Some results given as binding are weak or reduced against the parent protein; the word gives no strength.

“RONΔ155 (mutant recepteur d'origine nantais in which exons 5, 6, and 11 are deleted) (from UniProt Q04912 25-1400) (receptor)”: the binding entry is given as “binds”.
